# Source: US20150218120A1 (The Regents of the University of California, priority 2011, published 2015)
# For at least one compound, name, drawing or mass did not settle the structure. Some entries share one result that the patent states for a list of compounds.
# Biological target: HIV-1 IN (Human immunodeficiency virus type 1 group M subtype B, UniProt P12497)
# Test: HIV-1 IN strand transfer (ST) gel-based catalytic assay
# Type: biochemical
# Design: made in house
# Source text: As described above, HIV-1 IN has two functions: 3′-processing (3P) and strand transfer (ST). […] All 21 RCD compounds were screened for inhibitory activity against the 3P and ST reactions using published protocols (Metifiot M, et al., Biochemistry 49:3715-3722 (2010); Marchand C, Neamati N, & Pommier Y, Methods Enzymol 340:624-633 (2001)).
# Some assays use preassembled HIV-1 IN on immobilized oligonucleotides (Pace P, et al., J. Med. Chem. 50(9):2225-2239 (2007)), whereas the assay provided herein uses ^32-P-end labeled oligonucleotides in solution and gel-based separation of the reaction products.
# Recombinant HIV-1 IN and oligonucleotide substrates were obtained as previously reported (Marinello et al. Biochemistry 2008, 47, 9345-9354; Metifiot et al. Antimicrob. Agents Chemother. 2011, 55, 5127-5133; Hare et al. Mol. Pharmacol. 2011, 80, 565-572). Integrase reactions were performed in 10 μL total volume including 400 nM HIV-1 IN, 20 nM 5′-end [^32P]-labeled oligonucleotide substrate, and 1 μL inhibitor solution in 50 mM MOPS, pH 7.2, 7.5 mM MgCl2, and 14.3 mM 2-mercaptoethanol Inhibitor dilutions were in DMSO, and DMSO without drug was used as a control. Reactions were incubated at 37° C. for 60 min, terminated by adding 10 μL loading dye (10 mM EDTA, 98% deionized formamide, 0.025% xylene cyanol, and 0.025% bromophenol blue), and were subjected to electrophoresis in 20% polyacrylamide-7 M urea gels. Gels were dried and reaction products were visualized and quantified with a Typhoon 8600 (GE Healthcare, Little Chalfont, Buckinghamshire, UK).
structure (smiles),measurement,setting,value
Cc1occ(O)c(=O)c1C(=O)NCc1ccc(F)cc1,Fold less potent in vitro than RCD-5,relative to RCD-5,100 fold
"CNC(=O)c1ccc(C(=O)NCc2ccc(F)cc2)c(O)c1O [RCD-10, N1-(4-Fluorobenzyl)-2,3-dihydroxy-N4-methylterephthalamide]",Improvement in activity relative to RCD-8,,> 20 fold
"O=C(NCc1ccc(F)cc1)c1ccc(C(=O)NCc2ccc(F)cc2)c(O)c1O [RCD-11, N1,N4-Bis(4-fluorobenzyl)-2,3-dihydroxyterephthalamide]",Improvement in activity relative to RCD-8,,> 20 fold
